# Test results taken from US8735588B2, “Nematocidal sulfonamides” (E I Du Pont De Nemours and Company, priority 2009, dated 2014).
# Some results were stated once for a whole list of compounds, not compound by compound. At least one structure is not confirmed: it was looked up by name or label, or the drawing left a doubt.
# System: southern root-knot nematode (Meloidogyne incognita)
# Experiment: Test A: control of southern root-knot nematode by soil application, cucumber seedlings, root gall formation
# Assay type: in vivo
# Conditions: about 250 J2 larvae, 7 days at 27° C., no significant phytotoxicity
# [1] = 50 ppm active ingredient applied to soil
# [2] = 250 ppm active ingredient applied to soil
SMILES,"reduction in root galling, compared to solvent-treated controls (good levels of plant protection) [1] [%]","reduction in root galling, compared to solvent-treated controls (good levels of plant protection) [2] [%]"
COc1ccc(C)c(S(=O)(=O)NC(=O)c2cn3cc(C(F)(F)F)ccc3n2)c1 [Compound 439],≥ 50,≥ 50
COc1ccc(Cl)c(S(=O)(=O)NC(=O)c2cn3cc(C(F)(F)F)cc(Cl)c3n2)c1 [Compound 441],,≥ 50
COc1cc(S(=O)(=O)NC(=O)c2cn3cc(C(F)(F)F)cc(Cl)c3n2)c(C)cc1C#N [Compound 443],≥ 50,
Cc1cc(S(=O)(=O)NC(=O)c2cn3cc(C(F)(F)F)cc(Cl)c3n2)c(C)cc1C#N [Compound 444],≥ 50,≥ 50
Cc1ccc(C)c(S(=O)(=O)NC(=O)c2cn3cc(C(F)(F)F)cc(C#N)c3n2)c1 [Compound 445],≥ 50,≥ 50
CCOc1ccc(Cl)c(S(=O)(=O)NC(=O)c2cn3cc(C(F)(F)F)ccc3n2)c1 [Compound 449],≥ 50,≥ 50
CCSc1cc(C(F)(F)F)cn2cc(C(=O)NS(=O)(=O)c3cc(OC)ccc3Cl)nc12 [Compound 451],≥ 50,≥ 50
Cc1cc(C(F)(F)F)cn2cc(C(=O)NS(=O)(=O)c3cc(C(F)(F)F)ccc3Cl)nc12 [Compound 458],≥ 50,≥ 50
Cc1ccc(C)c(S(=O)(=O)NC(=O)c2cn3cc(C(F)(F)F)cc(C)c3n2)c1 [Compound 459],≥ 50,≥ 50
Cc1ccc(Cl)c(S(=O)(=O)NC(=O)c2cn3cc(C(F)(F)F)ccc3n2)c1 [Compound 460],≥ 50,≥ 50
Cc1ccc([N+](=O)[O-])c(S(=O)(=O)NC(=O)c2cn3cc(C(F)(F)F)ccc3n2)c1 [Compound 461],,≥ 50
CCc1ccc(Cl)c(S(=O)(=O)NC(=O)c2cn3cc(C(F)(F)F)ccc3n2)c1 [Compound 462],≥ 50,≥ 50
Cc1oncc1S(=O)(=O)NC(=O)c1cn2cc(C(F)(F)F)cc(Cl)c2n1 [Compound 464],,≥ 50
CCn1cc(S(=O)(=O)NC(=O)c2cn3cc(C(F)(F)F)ccc3n2)c(C)n1 [Compound 466],≥ 50,≥ 50
O=C(NS(=O)(=O)c1cc(Br)ccc1Cl)c1cn2cc(C(F)(F)F)ccc2n1 [Compound 467],≥ 50,≥ 50
O=C(NS(=O)(=O)c1cc(C(F)(F)F)ccc1Br)c1cn2cc(C(F)(F)F)ccc2n1 [Compound 468],,≥ 50
COc1ccc([N+](=O)[O-])c(S(=O)(=O)NC(=O)c2cn3cc(C(F)(F)F)ccc3n2)c1 [Compound 469],≥ 50,≥ 50
CC(=O)c1ccc(C)c(S(=O)(=O)NC(=O)c2cn3cc(C(F)(F)F)ccc3n2)c1 [Compound 470],≥ 50,≥ 50
CCCc1ccc(Br)c(S(=O)(=O)NC(=O)c2cn3cc(C(F)(F)F)ccc3n2)c1 [Compound 471],≥ 50,≥ 50
COc1ccc(Cl)c(S(=O)(=O)NC(=O)c2cn3cc(C(F)(F)F)ccc3n2)c1 [Compound 472],,≥ 50
"CCn1cc(S(=O)(=O)NC(=O)c2cn3cc(C(F)(F)F)cc(Cl)c3n2)c(Cl)n1 [Compound 474, 8-chloro-N-[(3-chloro-1-ethyl-1H-pyrazol-4-yl)sulfonyl]-6-(trifluoromethyl)imidazo[1,2-a]pyridine-2-carboxamide]",≥ 50,≥ 50
CC(C)n1cc(S(=O)(=O)NC(=O)c2cn3cc(C(F)(F)F)cc(Cl)c3n2)c(Cl)n1 [Compound 475],≥ 50,≥ 50
Cc1nn(C(C)C)cc1S(=O)(=O)NC(=O)c1cn2cc(C(F)(F)F)cc(Cl)c2n1 [Compound 476],,≥ 50
Cc1cc(S(=O)(=O)[N-]C(=O)c2cn3cc(C(F)(F)F)cc(Cl)c3n2)c(C)cc1C#N.[Na+] [Compound 477],≥ 50,≥ 50
COc1ccc(Cl)c(S(=O)(=O)[N-]C(=O)c2cn3cc(C(F)(F)F)cc(Cl)c3n2)c1.[Na+] [Compound 478],≥ 50,≥ 50
Cc1cc(S(=O)(=O)NC(=O)c2cn3cc(C(F)(F)F)cc(Cl)c3n2)c(C)cc1C#N [Compound 479],≥ 50,≥ 50
